The supplement of paper PMC10849652
The list shows a part of the results.

Amino acid sequences for entries named in this document (tags omitted). A change or cut given only in a name is not applied to a line headed by its entry.
UniProt P42575: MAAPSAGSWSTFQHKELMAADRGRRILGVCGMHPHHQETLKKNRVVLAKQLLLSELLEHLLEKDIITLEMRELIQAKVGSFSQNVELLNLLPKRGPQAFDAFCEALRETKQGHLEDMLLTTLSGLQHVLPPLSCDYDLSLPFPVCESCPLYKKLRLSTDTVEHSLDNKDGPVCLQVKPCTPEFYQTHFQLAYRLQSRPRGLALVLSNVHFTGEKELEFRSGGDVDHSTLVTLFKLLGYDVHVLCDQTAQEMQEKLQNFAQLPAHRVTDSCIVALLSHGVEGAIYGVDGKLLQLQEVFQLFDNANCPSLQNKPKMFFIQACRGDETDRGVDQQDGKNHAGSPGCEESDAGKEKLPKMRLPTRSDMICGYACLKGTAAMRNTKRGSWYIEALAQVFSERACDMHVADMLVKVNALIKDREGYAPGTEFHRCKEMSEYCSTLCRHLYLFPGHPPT
UniProt Q8IVM0: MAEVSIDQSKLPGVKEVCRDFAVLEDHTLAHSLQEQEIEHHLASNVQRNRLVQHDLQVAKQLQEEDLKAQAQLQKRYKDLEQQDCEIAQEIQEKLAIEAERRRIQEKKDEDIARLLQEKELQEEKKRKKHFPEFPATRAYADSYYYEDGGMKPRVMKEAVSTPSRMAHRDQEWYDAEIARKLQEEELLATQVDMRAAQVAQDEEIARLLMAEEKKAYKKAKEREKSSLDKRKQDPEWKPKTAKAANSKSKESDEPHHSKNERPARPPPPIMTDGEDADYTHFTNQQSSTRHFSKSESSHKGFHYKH
UniProt Q4VC31: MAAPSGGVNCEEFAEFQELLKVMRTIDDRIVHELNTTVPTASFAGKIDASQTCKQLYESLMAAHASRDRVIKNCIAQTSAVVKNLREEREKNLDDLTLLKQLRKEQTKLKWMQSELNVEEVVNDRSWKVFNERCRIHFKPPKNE
UniProt Q8N4S0: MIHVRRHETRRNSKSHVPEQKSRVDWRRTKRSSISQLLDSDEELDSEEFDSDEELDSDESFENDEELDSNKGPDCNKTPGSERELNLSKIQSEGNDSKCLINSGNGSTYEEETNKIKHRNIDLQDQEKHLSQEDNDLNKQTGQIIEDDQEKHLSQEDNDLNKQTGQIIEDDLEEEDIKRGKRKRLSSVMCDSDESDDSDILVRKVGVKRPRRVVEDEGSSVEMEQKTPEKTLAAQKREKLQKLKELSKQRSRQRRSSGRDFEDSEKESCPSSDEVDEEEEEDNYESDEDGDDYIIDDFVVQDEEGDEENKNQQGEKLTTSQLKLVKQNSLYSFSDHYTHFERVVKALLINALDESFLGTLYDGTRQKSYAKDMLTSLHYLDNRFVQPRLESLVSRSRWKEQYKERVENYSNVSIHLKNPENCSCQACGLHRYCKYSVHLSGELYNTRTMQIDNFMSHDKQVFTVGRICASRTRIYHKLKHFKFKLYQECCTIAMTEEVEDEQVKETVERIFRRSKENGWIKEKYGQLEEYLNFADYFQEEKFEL
UniProt Q2TAC2: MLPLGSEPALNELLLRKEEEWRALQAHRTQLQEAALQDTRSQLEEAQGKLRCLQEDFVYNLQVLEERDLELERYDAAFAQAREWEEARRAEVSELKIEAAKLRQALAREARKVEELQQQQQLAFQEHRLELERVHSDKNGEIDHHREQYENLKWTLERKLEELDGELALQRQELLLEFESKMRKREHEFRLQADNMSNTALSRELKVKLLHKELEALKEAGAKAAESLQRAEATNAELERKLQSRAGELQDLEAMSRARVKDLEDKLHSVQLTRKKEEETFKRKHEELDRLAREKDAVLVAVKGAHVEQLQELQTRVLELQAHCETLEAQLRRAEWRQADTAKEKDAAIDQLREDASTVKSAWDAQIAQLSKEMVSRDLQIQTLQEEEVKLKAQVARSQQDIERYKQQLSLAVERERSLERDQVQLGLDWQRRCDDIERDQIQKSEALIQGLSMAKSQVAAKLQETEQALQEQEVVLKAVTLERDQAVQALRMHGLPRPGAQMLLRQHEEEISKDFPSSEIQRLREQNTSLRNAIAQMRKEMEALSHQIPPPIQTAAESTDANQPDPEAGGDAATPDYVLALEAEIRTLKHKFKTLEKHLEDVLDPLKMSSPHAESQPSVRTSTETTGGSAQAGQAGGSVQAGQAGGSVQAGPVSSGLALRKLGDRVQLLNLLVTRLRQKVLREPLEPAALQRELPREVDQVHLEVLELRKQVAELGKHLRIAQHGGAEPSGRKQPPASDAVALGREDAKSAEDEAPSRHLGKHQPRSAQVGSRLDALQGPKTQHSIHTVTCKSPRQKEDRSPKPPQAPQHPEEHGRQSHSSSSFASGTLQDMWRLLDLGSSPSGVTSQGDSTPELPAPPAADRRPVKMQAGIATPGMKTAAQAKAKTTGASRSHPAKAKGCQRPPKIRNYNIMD
UniProt Q96CT7: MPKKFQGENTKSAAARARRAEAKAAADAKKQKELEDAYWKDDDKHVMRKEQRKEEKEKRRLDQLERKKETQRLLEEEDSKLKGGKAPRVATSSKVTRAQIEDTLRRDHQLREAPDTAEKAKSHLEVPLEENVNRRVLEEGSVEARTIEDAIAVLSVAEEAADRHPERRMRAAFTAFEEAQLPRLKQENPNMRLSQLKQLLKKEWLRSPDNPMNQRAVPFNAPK
UniProt P83916, whole entry, looked up: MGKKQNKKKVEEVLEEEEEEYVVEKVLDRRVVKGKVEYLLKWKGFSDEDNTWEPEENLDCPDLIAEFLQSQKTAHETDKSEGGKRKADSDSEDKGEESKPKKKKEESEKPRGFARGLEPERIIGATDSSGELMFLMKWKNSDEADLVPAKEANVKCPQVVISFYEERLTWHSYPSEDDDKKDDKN
UniProt P86791: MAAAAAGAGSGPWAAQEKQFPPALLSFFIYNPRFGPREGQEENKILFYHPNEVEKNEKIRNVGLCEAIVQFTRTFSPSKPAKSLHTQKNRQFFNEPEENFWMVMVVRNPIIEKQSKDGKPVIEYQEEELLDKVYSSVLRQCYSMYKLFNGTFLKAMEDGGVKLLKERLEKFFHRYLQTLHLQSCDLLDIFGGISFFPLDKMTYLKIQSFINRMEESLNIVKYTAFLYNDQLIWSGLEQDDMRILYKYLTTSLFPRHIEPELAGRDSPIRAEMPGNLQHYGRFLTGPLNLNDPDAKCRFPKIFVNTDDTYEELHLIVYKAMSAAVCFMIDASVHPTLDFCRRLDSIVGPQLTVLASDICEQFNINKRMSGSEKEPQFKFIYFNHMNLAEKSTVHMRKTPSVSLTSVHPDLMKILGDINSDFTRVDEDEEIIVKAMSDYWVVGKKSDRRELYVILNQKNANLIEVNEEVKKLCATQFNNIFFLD
UniProt P49368: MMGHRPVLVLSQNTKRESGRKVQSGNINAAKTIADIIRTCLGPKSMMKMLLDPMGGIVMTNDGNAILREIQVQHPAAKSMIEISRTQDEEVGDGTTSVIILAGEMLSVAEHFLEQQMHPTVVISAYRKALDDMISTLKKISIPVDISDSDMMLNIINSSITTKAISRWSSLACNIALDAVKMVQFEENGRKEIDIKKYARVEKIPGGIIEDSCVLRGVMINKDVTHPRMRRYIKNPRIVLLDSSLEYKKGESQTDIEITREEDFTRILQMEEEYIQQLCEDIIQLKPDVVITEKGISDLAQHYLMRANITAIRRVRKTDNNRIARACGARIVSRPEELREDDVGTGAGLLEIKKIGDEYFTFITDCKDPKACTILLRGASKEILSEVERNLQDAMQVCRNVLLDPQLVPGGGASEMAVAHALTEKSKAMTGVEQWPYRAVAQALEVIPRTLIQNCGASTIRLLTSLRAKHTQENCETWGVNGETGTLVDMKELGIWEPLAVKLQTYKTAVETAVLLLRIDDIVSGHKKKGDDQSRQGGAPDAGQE
UniProt P04040: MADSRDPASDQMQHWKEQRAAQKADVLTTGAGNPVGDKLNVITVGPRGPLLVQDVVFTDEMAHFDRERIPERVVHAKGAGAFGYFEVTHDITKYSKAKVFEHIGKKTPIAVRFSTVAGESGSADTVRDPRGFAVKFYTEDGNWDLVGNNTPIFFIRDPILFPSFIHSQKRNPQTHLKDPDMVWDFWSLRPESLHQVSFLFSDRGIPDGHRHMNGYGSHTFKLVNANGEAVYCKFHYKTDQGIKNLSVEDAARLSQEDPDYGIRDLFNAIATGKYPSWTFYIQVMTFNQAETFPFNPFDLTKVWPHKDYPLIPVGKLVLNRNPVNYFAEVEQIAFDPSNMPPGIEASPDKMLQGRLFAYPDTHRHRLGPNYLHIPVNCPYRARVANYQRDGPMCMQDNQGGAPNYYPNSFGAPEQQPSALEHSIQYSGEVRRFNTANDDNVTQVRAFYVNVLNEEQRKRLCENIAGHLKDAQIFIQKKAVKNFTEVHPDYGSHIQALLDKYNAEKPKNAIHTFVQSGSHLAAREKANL
UniProt Q6P1N0: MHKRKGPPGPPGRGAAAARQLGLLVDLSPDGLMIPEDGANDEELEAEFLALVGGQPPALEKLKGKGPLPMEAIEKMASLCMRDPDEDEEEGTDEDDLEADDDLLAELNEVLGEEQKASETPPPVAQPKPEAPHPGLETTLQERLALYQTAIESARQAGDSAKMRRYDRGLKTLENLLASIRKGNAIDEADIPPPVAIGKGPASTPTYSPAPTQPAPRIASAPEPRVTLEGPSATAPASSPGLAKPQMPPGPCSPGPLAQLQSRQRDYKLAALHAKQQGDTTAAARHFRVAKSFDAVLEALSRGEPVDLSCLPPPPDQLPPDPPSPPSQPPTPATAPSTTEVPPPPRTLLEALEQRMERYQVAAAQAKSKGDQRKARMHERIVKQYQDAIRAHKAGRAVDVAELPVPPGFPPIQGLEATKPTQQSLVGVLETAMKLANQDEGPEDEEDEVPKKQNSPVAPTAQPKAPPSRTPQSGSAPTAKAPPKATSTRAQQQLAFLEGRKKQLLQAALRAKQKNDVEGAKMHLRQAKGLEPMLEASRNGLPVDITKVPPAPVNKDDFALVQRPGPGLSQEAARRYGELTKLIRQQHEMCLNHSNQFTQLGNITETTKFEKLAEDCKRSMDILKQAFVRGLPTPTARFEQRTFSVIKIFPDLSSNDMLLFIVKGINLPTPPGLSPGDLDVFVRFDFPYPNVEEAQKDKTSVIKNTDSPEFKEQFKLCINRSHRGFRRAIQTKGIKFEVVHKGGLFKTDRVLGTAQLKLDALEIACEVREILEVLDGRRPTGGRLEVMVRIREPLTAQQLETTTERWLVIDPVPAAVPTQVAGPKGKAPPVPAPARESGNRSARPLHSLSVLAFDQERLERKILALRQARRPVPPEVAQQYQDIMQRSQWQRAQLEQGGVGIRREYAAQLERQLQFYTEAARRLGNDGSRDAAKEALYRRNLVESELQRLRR
UniProt P08174: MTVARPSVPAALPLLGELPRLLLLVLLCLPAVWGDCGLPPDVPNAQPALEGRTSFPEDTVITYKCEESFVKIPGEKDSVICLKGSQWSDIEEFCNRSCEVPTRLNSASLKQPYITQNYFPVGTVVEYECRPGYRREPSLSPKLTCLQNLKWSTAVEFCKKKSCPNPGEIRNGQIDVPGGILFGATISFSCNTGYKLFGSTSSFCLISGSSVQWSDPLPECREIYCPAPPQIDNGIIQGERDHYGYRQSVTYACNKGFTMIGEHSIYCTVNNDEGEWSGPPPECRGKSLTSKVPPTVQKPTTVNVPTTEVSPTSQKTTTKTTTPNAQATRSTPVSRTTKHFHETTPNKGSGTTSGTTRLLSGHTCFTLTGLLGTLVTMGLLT
UniProt Q7Z6B0: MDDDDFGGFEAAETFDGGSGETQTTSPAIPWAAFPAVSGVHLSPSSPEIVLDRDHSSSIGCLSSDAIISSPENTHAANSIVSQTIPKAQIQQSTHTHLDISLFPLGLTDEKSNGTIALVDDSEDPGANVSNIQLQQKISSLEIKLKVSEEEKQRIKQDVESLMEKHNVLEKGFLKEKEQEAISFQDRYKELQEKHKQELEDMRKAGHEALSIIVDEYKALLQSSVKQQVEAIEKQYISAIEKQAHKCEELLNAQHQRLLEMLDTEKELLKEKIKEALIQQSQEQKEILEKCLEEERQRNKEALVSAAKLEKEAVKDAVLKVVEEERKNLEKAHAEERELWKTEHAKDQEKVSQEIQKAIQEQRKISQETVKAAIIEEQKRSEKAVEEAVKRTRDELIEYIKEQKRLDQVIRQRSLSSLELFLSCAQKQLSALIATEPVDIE
UniProt Q08722, whole entry, looked up: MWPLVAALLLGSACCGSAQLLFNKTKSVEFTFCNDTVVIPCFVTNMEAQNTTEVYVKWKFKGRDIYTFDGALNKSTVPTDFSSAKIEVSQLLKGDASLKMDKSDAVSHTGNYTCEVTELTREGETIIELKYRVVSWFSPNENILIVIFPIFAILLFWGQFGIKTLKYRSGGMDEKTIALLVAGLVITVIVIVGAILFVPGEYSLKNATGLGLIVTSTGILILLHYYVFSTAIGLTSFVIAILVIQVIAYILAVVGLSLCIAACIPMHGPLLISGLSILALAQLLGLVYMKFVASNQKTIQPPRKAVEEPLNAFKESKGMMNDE

What follows are targets tested with CCn1cc(-c2ccnc3[nH]c(-c4cccc(CN(C)C)c4)cc23)c(-c2ccc(NC(=O)N(C)C)cc2)n1 (assay: log2 fold change, soluble protein after heating vs DMSO (PISA); higher = thermal stabilisation; K562 lysate, 10 uM; active = over 0.2 and 3.5 SD of the protein, either way, in both replicates (recomputed)).
In short: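 The values are log-two fold changes in thermal stability compared with solvent controls and come from duplicates. They were obtained by TMTpro 16plex LC-MS/MS, with channel sums equalised, on the supernatant after 21,000xg for 90 min. That supernatant came from crude K562 extract at 1 mg/mL protein treated with 10 μM compound for 30 min, heated for 3 min across 48°C-58°C, pooled and brought to 0.5% NP-40 at 4°C.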
For CASP2 (UniProt P42575), the log2 fold change was inactive: -0.092. CCDC50 isoform 2 (UniProt Q8IVM0) was tested, and the log2 fold change was inactive: 0.007. CCDC58 (UniProt Q4VC31) was tested, and the log2 fold change was inactive: 0.151. With CARM1 (UniProt Q86X55) the log2 fold change was inactive: -0.098. For CCDC82 (UniProt Q8N4S0), the log2 fold change was inactive: -0.002. For CCDC57 (UniProt Q2TAC2), the log2 fold change was inactive: -0.056. For CCT8 (UniProt P50990), the log2 fold change was inactive: -0.005. For CCDC124 (UniProt Q96CT7), the log2 fold change was inactive: 0.111. CBX1 (UniProt P83916) was tested, and the log2 fold change was active: 0.301. In the case of CCZ1 (UniProt P86791), the log2 fold change is reported as inactive: -0.07. CCT3 (UniProt P49368) was tested, and the log2 fold change was inactive: 0. CBWD2 (UniProt Q8IUF1) was tested, and the log2 fold change was inactive: -0.054. In the case of CAT (UniProt P04040), the log2 fold change is reported as inactive: -0.006. In the case of CCNA2 (UniProt P20248), the log2 fold change is reported as inactive: -0.183. CBS (UniProt P35520) was tested, and the log2 fold change was inactive: -0.019. CCDC88C (UniProt Q9P219) was tested, and the log2 fold change was inactive: -0.023. For CC2D1A (UniProt Q6P1N0), the log2 fold change was inactive: 0.242. In the case of CCDC90B (UniProt Q9GZT6), the log2 fold change is reported as inactive: 0.132. CARD8 isoform 5 (UniProt Q9Y2G2) was tested, and the log2 fold change was inactive: -0.065. In the case of CC2D1B isoform 2 (UniProt Q5T0F9), the log2 fold change is reported as inactive: -0.004. For CBFB isoform 2 (UniProt Q13951), the log2 fold change was inactive: -0.107. CD55 isoform 7 (UniProt P08174) was tested, and the log2 fold change was inactive: -0.06. In the case of CCDC91 (UniProt Q7Z6B0), the log2 fold change is reported as inactive: 0.074. CCT7 (UniProt Q99832) was tested, and the log2 fold change was inactive: 0.049. With CBLB (UniProt Q13191) the log2 fold change was inactive: -0.15. CD2AP (UniProt Q9Y5K6) was tested, and the log2 fold change was inactive: -0.034. In the case of CCNL2 (UniProt Q96S94), the log2 fold change is reported as inactive: 0.033. CASTOR2 (UniProt A6NHX0) was tested, and the log2 fold change was inactive: -0.02. For CD46 isoform 2 (UniProt P15529), the log2 fold change was inactive: -0.007. With CD47 (UniProt Q08722) the log2 fold change was inactive: -0.133. For CARS2 (UniProt Q9HA77), the log2 fold change was inactive: -0.02. For CCNB1 (UniProt P14635), the log2 fold change was inactive: -0.023. CBFA2T3 (UniProt O75081) was tested, and the log2 fold change was inactive: -0.023.
